Paper PMC4332150

T1: SFB-tagged FOXM1 (human) (UniProt Q08050)
T1 sequence: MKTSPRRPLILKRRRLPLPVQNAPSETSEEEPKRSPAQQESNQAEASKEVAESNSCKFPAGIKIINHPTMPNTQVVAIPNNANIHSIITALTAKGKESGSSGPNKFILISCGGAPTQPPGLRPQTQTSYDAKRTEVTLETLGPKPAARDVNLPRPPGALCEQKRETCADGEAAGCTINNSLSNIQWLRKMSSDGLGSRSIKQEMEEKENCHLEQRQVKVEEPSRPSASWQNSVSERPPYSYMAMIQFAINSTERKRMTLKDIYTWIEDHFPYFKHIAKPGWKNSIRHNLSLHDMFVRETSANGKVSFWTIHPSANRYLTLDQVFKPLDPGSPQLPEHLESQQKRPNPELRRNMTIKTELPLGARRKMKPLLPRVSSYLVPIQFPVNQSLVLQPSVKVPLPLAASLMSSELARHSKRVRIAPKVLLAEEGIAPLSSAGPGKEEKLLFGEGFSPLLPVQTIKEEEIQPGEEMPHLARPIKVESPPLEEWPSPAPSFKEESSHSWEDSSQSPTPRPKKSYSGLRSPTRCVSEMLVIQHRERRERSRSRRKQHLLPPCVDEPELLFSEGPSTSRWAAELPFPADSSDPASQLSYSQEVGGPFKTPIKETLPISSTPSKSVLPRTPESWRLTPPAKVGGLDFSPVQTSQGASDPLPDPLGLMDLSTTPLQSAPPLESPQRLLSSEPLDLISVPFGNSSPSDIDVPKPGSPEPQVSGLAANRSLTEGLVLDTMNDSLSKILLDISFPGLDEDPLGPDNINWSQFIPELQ


How the values were obtained:
[1] = molecular target: T1, SFB-tagged FOXM1 (human); experiment: affinity purification with mass spectrometry; TAP (streptavidin beads, biotin elution, S-protein beads; NETN buffer) of C-terminally SFB-tagged bait from HEK293T; soluble fraction (supernatant of the NETN lysate); forward and reciprocal purifications
[2] = molecular target: T1, SFB-tagged FOXM1 (human); experiment: affinity purification with mass spectrometry; TAP (streptavidin beads, biotin elution, S-protein beads; NETN buffer) of C-terminally SFB-tagged bait from HEK293T; chromatin fraction (pellet after NETN lysis, digested with TurboNuclease); forward and reciprocal purifications; some baits also after drug treatment

binding [1]	Binder	binding [2]
binds	QARS (endogenous) (protein, UniProt P47897 1-775) MAALDSLSLFTSLGLSEQKARETLKNSALSAQLREAATQAQQTLGSTIDKATGILLYGLASRLRDTRRLSFLVSYIASKKIHTEPQLSAALEYVRSHPLDPIDTVDFERECGVGVIVTPEQIEEAVEAAINRHRPQLLVERYHFNMGLLMGEARAVLKWADGKMIKNEVDMQVLHLLGPKLEADLEKKFKVAKARLEETDRRTAKDVVENGETADQTLSLMEQLRGEALKFHKPGENYKTPGYVVTPHTMNLLKQHLEITGGQVRTRFPPEPNGILHIGHAKAINFNFGYAKANNGICFLRFDDTNPEKEEAKFFTAICDMVAWLGYTPYKVTYASDYFDQLYAWAVELIRRGLAYVCHQRGEELKGHNTLPSPWRDRPMEESLLLFEAMRKGKFSEGEATLRMKLVMEDGKMDPVAYRVKYTPHHRTGDKWCIYPTYDYTHCLCDSIEHITHSLCTKEFQARRSSYFWLCNALDVYCPVQWEYGRLNLHYAVVSKRKILQLVATGAVRDWDDPRLFTLTALRRRGFPPEAINNFCARVGVTVAQTTMEPHLLEACVRDVLNDTAPRAMAVLESLRVIITNFPAAKSLDIQVPNFPADETKGFHQVPFAPIVFIERTDFKEEPEPGFKRLAWGQPVGLRHTGYVIELQHVVKGPSGCVESLEVTCRRADAGEKPKAFIHWVSQPLMCEVRLYERLFQHKNPEDPTEVPGGFLSDLNLASLHVVDAALVDCSVALAKPFDKFQFERLGYFSVDPDSHQGKLVFNRTVTLKEDPGKV	no binding (only in the chromatin fraction)
binds	IARS (endogenous) (protein, UniProt P41252 1-1262) MLQQVPENINFPAEEEKILEFWTEFNCFQECLKQSKHKPKFTFYDGPPFATGLPHYGHILAGTIKDIVTRYAHQSGFHVDRRFGWDCHGLPVEYEIDKTLGIRGPEDVAKMGITEYNNQCRAIVMRYSAEWKSTVSRLGRWIDFDNDYKTLYPQFMESVWWVFKQLYDKGLVYRGVKVMPFSTACNTPLSNFESHQNYKDVQDPSVFVTFPLEEDETVSLVAWTTTPWTLPSNLAVCVNPEMQYVKIKDVARGRLLILMEARLSALYKLESDYEILERFPGAYLKGKKYRPLFDYFLKCKENGAFTVLVDNYVKEEEGTGVVHQAPYFGAEDYRVCMDFNIIRKDSLPVCPVDASGCFTTEVTDFAGQYVKDADKSIIRTLKEQGRLLVATTFTHSYPFCWRSDTPLIYKAVPSWFVRVENMVDQLLRNNDLCYWVPELVREKRFGNWLKDARDWTISRNRYWGTPIPLWVSDDFEEVVCIGSVAELEELSGAKISDLHRESVDHLTIPSRCGKGSLHRISEVFDCWFESGSMPYAQVHYPFENKREFEDAFPADFIAEGIDQTRGWFYTLLVLATALFGQPPFKNVIVNGLVLASDGQKMSKRKKNYPDPVSIIQKYGADALRLYLINSPVVRAENLRFKEEGVRDVLKDVLLPWYNAYRFLIQNVLRLQKEEEIEFLYNENTVRESPNITDRWILSFMQSLIGFFETEMAAYRLYTVVPRLVKFVDILTNWYVRMNRRRLKGENGMEDCVMALETLFSVLLSLCRLMAPYTPFLTELMYQNLKVLIDPVSVQDKDTLSIHYLMLPRVREELIDKKTESAVSQMQSVIELGRVIRDRKTIPIKYPLKEIVVIHQDPEALKDIKSLEKYIIEELNVRKVTLSTDKNKYGIRLRAEPDHMVLGKRLKGAFKAVMTSIKQLSSEELEQFQKTGTIVVEGHELHDEDIRLMYTFDQATGGTAQFEAHSDAQALVLLDVTPDQSMVDEGMAREVINRIQKLRKKCNLVPTDEITVYYKAKSEGTYLNSVIESHTEFIFTTIKAPLKPYPVSPSDKVLIQEKTQLKGSELEITLTRGSSLPGPACAYVNLNICANGSEQGGVLLLENPKGDNRLDLLKLKSVVTSIFGVKNTELAVFHDETEIQNQTDLLSLSGKTLCVTAGSAPSLINSSSTLLCQYINLQLLNAKPQECLMGTVGTLLLENPLGQNGLTHQGLLYEAAKVFGLRSRKLKLFLNETQTQEITEDIPVKTLNMKTVYVSVLPTTADF	no binding (only in the chromatin fraction)
binds	C22orf28 (endogenous) (protein, UniProt Q9Y3I0 1-505) MSRSYNDELQFLEKINKNCWRIKKGFVPNMQVEGVFYVNDALEKLMFEELRNACRGGGVGGFLPAMKQIGNVAALPGIVHRSIGLPDVHSGYGFAIGNMAAFDMNDPEAVVSPGGVGFDINCGVRLLRTNLDESDVQPVKEQLAQAMFDHIPVGVGSKGVIPMNAKDLEEALEMGVDWSLREGYAWAEDKEHCEEYGRMLQADPNKVSARAKKRGLPQLGTLGAGNHYAEIQVVDEIFNEYAAKKMGIDHKGQVCVMIHSGSRGLGHQVATDALVAMEKAMKRDKIIVNDRQLACARIASPEGQDYLKGMAAAGNYAWVNRSSMTFLTRQAFAKVFNTTPDDLDLHVIYDVSHNIAKVEQHVVDGKERTLLVHRKGSTRAFPPHHPLIAVDYQLTGQPVLIGGTMGTCSYVLTGTEQGMTETFGTTCHGAGRALSRAKSRRNLDFQDVLDKLADMGIAIRVASPKLVMEEAPESYKNVTDVVNTCHDAGISKKAIKLRPIAVIKG	no binding (only in the chromatin fraction)

More lines, now with the values behind:

Binder	binding [1]	binding [2]
S100A7 (endogenous) (protein, UniProt P31151 1-101) MSNTQAERSIIGMIDMFHKYTRRDDKIEKPSLLTMMKENFPNFLSACDKKGTNYLADVFEKKDKNEDKKIDFSEFLSLLGDIATDYHKQSHGAAPCSGGSQ	no binding (only in the soluble fraction)	binds
DARS (endogenous) (protein, UniProt P14868 1-501) MPSASASRKSQEKPREIMDAAEDYAKERYGISSMIQSQEKPDRVLVRVRDLTIQKADEVVWVRARVHTSRAKGKQCFLVLRQQQFNVQALVAVGDHASKQMVKFAANINKESIVDVEGVVRKVNQKIGSCTQQDVELHVQKIYVISLAEPRLPLQLDDAVRPEAEGEEEGRATVNQDTRLDNRVIDLRTSTSQAVFRLQSGICHLFRETLINKGFVEIQTPKIISAASEGGANVFTVSYFKNNAYLAQSPQLYKQMCICADFEKVFSIGPVFRAEDSNTHRHLTEFVGLDIEMAFNYHYHEVMEEIADTMVQIFKGLQERFQTEIQTVNKQFPCEPFKFLEPTLRLEYCEALAMLREAGVEMGDEDDLSTPNEKLLGHLVKEKYDTDFYILDKYPLAVRPFYTMPDPRNPKQSNSYDMFMRGEEILSGAQRIHDPQLLTERALHHGIDLEKIKAYIDSFRFGAPPHAGGGIGLERVTMLFLGLHNVRQTSMFPRDPKRLTP	binds	no binding (only in the chromatin fraction)
PARS2 (endogenous) (protein, UniProt Q7L3T8 30-475) HHCAPRRGRRLLLSRVFQPQNLREDRVLSLQDKSDDLTCKSQRLMLQVGLIYPASPGCYHLLPYTVRAMEKLVRVIDQEMQAIGGQKVNMPSLSPAELWQATNRWDLMGKELLRLRDRHGKEYCLGPTHEEAITALIASQKKLSYKQLPFLLYQVTRKFRDEPRPRFGLLRGREFYMKDMYTFDSSPEAAQQTYSLVCDAYCSLFNKLGLPFVKVQADVGTIGGTVSHEFQLPVDIGEDRLAICPRCSFSANMETLDLSQMNCPACQGPLTKTKGIEVGHTFYLGTKYSSIFNAQFTNVCGKPTLAEMGCYGLGVTRILAAAIEVLSTEDCVRWPSLLAPYQACLIPPKKGSKEQAASELIGQLYDHITEAVPQLHGEVLLDDRTHLTIGNRLKDANKFGYPFVIIAGKRALEDPAHFEVWCQNTGEVAFLTKDGVMDLLTPVQTV	binds	no binding (only in the chromatin fraction)

No constants are given. Whether binding was seen depends on the method and setting. Binding seen in cells or lysates may run through a third protein. These calls come from enrichment with a bait or labelling near it, and not all partners need be listed. A no says only that the protein was not detected with the bait. Tags and fused reporters may be left off the sequences shown.
